The star is where a group is joined. Tos = Cc1ccc(S(=O)(=O)*)cc1; OPac = O=C(CO*)c1ccccc1; Boc = CC(C)(C)OC(=O)*; OBn = c1ccc(CO*)cc1; Bn = c1ccc(C*)cc1; Acm = CC(=O)NC*; NHNH2 = NN*
Experiment: general procedure: solution-phase peptide synthesis; EDC/HOBt; active esters (OSu, ONp); DCC; azide method

Substance | step yield (coupling step) [%] | step yield (late stage modification step) [%]
Aoc-Arg(Tos)-Met-Asp(OBzl)-Arg(Tos)-Ile-Gly-OTce | 54 | –
Boc-AQS(Bn)G-OH | – | 76
Boc-AQS(Bn)G-OPac | 85 | –
Boc-AQS(Bn)GLG-OH | – | 80
Boc-AQS(Bn)GLG-OPac | 85 | –
Boc-Ala-Gln-Ser(Bzl)-Gly-Leu-Gly-Cys(Acm)-Asn-Ser(Bzl)-Phe-Arg(Tos)-Tyr(Dcb)-OBzl | 96 | –
Boc-Ala-Gln-Ser(Bzl)-Gly-Leu-Gly-Cys(Z-Cys-OH)-Asn-Ser(Bzl)-Phe-Arg(Tos)-Tyr(Dcb)-OBzl | – | 69
Boc-Asn-Ser(Bzl)-Phe-Arg(Tos)-Tyr(Dcb)-OBzl | 88 | –
Boc-Asp(OBzl)-Arg(Tos)-Ile-Gly-OTce | 93 | –
Boc-C(Acm)FGG-NHNH2 | – | 97
Boc-C(Acm)FGG-OBn | 92 | –
Boc-C(Acm)FGGR(Tos)MD(OBn)R(Tos)IG-OH | – | 98
Boc-Cys(Acm)-Asn-Ser(Bzl)-Phe-Arg(Tos)-Tyr(Dcb)-OBzl | 85 | –
Boc-Cys(Acm)-Phe-Gly-Gly-Arg(Tos)-Met-Asp(OBzl)-Arg(Tos)-Ile-Gly-OTce | 91 | –
Boc-FGGR(Tos)MD(OBn)R(Tos)IG-OH | – | 86
Boc-Met-Asp(OBzl)-Arg(Tos)-Ile-Gly-OTce | 95 | –
Boc-Phe-Gly-Gly-Arg(Tos)-Met-Asp(OBzl)-Arg(Tos)-Ile-Gly-Ala-Gln-Ser(Bzl)-Gly-Leu-Glr-Cys(Acm)-Asn-Ser(Bzl)-Arg(Tos)-Tyr(Dcb)-OBzl | 86 | –
Boc-Phe-Gly-Gly-Arg(Tos)-Met-Asp(OBzl)-Arg(Tos)-Ile-Gly-OTce | 77 | –

From patent EP0266006A2 (SHIONOGI SEIYAKU KABUSHIKI KAISHA trading under the name of …, priority 1986, dated 1988)
